# Source: the supplement of paper PMC6411743
# ± gives the standard deviation of the averaged measurements. The list shows a part of the results.
# Tests used:
# Experiment in all cases: NP40-soluble protein abundance relative to vehicle (solubility fold change) (ratio); higher = more soluble protein in presence of GTP
# ACAD9 = molecular target: T1, ACAD9 (UniProt Q9H845)
# T1 sequence (whole entry): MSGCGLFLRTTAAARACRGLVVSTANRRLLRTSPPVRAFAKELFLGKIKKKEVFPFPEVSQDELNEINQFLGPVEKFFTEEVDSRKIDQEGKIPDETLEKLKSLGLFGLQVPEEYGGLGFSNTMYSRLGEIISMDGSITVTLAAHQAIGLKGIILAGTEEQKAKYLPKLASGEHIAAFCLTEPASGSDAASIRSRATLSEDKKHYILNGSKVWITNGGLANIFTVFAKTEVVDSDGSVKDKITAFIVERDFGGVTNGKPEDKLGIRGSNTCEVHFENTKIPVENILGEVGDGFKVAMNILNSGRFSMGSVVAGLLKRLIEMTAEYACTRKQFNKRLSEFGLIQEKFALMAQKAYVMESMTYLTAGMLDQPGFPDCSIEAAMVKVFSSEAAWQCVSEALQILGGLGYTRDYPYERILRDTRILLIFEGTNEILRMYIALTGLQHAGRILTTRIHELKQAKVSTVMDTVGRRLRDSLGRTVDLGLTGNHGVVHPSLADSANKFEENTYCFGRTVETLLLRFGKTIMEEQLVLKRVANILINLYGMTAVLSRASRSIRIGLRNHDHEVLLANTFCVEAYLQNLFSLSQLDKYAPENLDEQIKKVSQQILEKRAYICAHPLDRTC
# How it was run: (§1)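 In three independent experiments, Jurkat crude lysate made by Dounce homogenisation was treated for 10 min at room temperature and then 3 min at 37 °C with eight concentrations ranging from 0.1 to 10 mM. It was then solubilised with 0.8% NP40 plus benzonase for 60 min at 4 °C and ultracentrifuged. The supernatant was TMT-labelled for LC-MS/MS, and each value is the fold change against the detergent-processed vehicle for the same replicate, using vsn-normalised intensities.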
# DCP1A = molecular target: T2, DCP1A (UniProt Q9NPI6)
# T2 sequence (whole entry): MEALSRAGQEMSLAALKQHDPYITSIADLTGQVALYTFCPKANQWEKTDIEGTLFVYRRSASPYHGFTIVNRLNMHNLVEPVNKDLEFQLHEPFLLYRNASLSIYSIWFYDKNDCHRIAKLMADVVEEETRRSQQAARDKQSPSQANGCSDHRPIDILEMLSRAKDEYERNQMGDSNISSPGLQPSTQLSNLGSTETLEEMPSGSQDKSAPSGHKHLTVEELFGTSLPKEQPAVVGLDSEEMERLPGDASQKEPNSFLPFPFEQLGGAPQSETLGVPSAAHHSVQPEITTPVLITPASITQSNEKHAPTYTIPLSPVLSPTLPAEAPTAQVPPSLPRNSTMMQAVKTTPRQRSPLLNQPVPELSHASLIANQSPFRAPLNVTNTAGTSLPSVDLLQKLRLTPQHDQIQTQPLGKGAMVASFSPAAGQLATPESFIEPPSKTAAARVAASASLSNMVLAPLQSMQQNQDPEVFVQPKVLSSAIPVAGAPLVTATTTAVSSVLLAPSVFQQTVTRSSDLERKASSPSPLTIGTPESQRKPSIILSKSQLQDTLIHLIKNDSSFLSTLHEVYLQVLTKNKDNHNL
# How it was run: as §1
# FARSB = molecular target: T3, FARSB (UniProt Q9NSD9)
# T3 sequence (whole entry): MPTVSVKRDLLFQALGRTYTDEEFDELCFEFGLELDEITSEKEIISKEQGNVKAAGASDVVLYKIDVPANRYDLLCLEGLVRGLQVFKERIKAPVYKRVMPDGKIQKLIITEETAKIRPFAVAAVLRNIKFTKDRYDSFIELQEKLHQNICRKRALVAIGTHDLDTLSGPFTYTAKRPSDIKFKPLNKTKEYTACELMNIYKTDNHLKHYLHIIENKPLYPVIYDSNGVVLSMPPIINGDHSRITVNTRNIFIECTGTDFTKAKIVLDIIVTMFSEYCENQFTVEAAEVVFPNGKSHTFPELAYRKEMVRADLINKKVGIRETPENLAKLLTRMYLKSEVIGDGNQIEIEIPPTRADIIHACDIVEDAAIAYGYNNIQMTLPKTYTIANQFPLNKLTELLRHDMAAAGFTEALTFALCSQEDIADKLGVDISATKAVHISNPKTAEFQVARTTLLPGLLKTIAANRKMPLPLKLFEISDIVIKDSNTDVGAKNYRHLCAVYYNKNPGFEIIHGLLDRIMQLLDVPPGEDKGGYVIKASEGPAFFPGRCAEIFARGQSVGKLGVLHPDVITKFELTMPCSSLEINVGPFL
# How it was run: as §1
# PLEKHF2 = molecular target: T4, PLEKHF2 (UniProt Q9H8W4)
# T4 sequence (whole entry): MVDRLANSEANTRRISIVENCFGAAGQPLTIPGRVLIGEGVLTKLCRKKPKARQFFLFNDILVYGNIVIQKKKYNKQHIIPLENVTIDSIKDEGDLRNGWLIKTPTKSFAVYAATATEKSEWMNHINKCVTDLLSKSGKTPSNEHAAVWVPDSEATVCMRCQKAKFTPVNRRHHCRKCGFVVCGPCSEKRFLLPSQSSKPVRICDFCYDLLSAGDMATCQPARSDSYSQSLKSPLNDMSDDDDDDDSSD
# How it was run: as §1
# PREB = molecular target: T5, PREB (UniProt Q9HCU5)
# T5 sequence (whole entry): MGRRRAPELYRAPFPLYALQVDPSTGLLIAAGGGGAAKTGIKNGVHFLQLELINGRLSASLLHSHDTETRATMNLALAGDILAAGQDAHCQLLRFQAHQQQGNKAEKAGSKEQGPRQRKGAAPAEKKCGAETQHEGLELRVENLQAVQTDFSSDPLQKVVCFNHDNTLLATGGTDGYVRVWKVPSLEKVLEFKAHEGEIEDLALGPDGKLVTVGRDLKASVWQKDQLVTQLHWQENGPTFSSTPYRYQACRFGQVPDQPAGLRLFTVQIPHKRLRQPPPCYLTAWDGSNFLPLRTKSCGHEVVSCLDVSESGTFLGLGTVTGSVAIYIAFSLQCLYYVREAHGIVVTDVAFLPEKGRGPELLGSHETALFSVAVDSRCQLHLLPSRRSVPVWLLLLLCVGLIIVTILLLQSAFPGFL
# How it was run: as §1
compound,measurement,setting,value
Nc1nc2c(ncn2[C@@H]2O[C@H](COP(=O)(O)OP(=O)(O)OP(=O)(O)O)[C@@H](O)[C@H]2O)c(=O)[nH]1 [guanosine triphosphate],NP40-soluble protein abundance,ACAD9; concentration: 0.1mM,1.01 ± 0.063
same,NP40-soluble protein abundance,ACAD9; concentration: 0.5mM,1.02 ± 0.052
same,NP40-soluble protein abundance,ACAD9; concentration: 1mM,0.965 ± 0.054
same,NP40-soluble protein abundance,ACAD9; concentration: 2mM,0.967 ± 0.05
same,NP40-soluble protein abundance,ACAD9; concentration: 4mM,0.946 ± 0.086
same,NP40-soluble protein abundance,ACAD9; concentration: 6mM,0.957 ± 0.042
same,NP40-soluble protein abundance,ACAD9; concentration: 8mM,0.929 ± 0.058
same,NP40-soluble protein abundance,ACAD9; concentration: 10mM,0.901 ± 0.015
same,NP40-soluble protein abundance,DCP1A; concentration: 0.1mM,0.984 ± 0.065
same,NP40-soluble protein abundance,DCP1A; concentration: 0.5mM,0.994 ± 0.088
same,NP40-soluble protein abundance,DCP1A; concentration: 1mM,0.961 ± 0.047
same,NP40-soluble protein abundance,DCP1A; concentration: 2mM,0.965 ± 0.041
same,NP40-soluble protein abundance,DCP1A; concentration: 4mM,0.97 ± 0.053
same,NP40-soluble protein abundance,DCP1A; concentration: 6mM,0.955 ± 0.04
same,NP40-soluble protein abundance,DCP1A; concentration: 8mM,0.944 ± 0.073
same,NP40-soluble protein abundance,DCP1A; concentration: 10mM,0.948 ± 0.071
same,NP40-soluble protein abundance,FARSB; concentration: 0.1mM,1.05 ± 0.043
same,NP40-soluble protein abundance,FARSB; concentration: 0.5mM,1.06 ± 0.074
same,NP40-soluble protein abundance,FARSB; concentration: 1mM,0.933 ± 0.035
same,NP40-soluble protein abundance,FARSB; concentration: 2mM,0.944 ± 0.091
same,NP40-soluble protein abundance,FARSB; concentration: 4mM,0.954 ± 0.064
same,NP40-soluble protein abundance,FARSB; concentration: 6mM,0.925 ± 0.059
same,NP40-soluble protein abundance,FARSB; concentration: 8mM,0.875 ± 0.012
same,NP40-soluble protein abundance,FARSB; concentration: 10mM,0.844 ± 0.057
same,NP40-soluble protein abundance,PLEKHF2; concentration: 0.1mM,0.956 ± 0.025
same,NP40-soluble protein abundance,PLEKHF2; concentration: 0.5mM,0.96 ± 0.012
same,NP40-soluble protein abundance,PLEKHF2; concentration: 1mM,0.897 ± 0.06
same,NP40-soluble protein abundance,PLEKHF2; concentration: 2mM,0.894 ± 0.074
same,NP40-soluble protein abundance,PLEKHF2; concentration: 4mM,0.861 ± 0.063
same,NP40-soluble protein abundance,PLEKHF2; concentration: 6mM,0.853 ± 0.027
same,NP40-soluble protein abundance,PLEKHF2; concentration: 8mM,0.853 ± 0.068
same,NP40-soluble protein abundance,PLEKHF2; concentration: 10mM,0.854 ± 0.095
same,NP40-soluble protein abundance,PREB; concentration: 0.1mM,1.04 ± 0.025
same,NP40-soluble protein abundance,PREB; concentration: 0.5mM,1 ± 0.013

# An excerpt of the results above, for reference:
compound,measurement,setting,value
Nc1nc2c(ncn2[C@@H]2O[C@H](COP(=O)(O)OP(=O)(O)OP(=O)(O)O)[C@@H](O)[C@H]2O)c(=O)[nH]1 [guanosine triphosphate],NP40-soluble protein abundance,DCP1A; concentration: 1mM,0.961 ± 0.047
same,NP40-soluble protein abundance,DCP1A; concentration: 2mM,0.965 ± 0.041
